Data: PubChem BioAssay AID485318 (Broad Institute, 2010)
The whole screen tested about 1,400 compounds, of which fewer than 10 were called active.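 How the source made its calls: active means fluorescence-lowering compounds whose fitted half-maximal concentration is at or below ten times the highest valid dose tested; inconclusive means flat curve at 30 to 70% inhibition, or poor fit; inactive means the rest.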 This is one part of the list.

Sequences of proteins named here, by UniProt entry; tags and fusion partners are left off. A change or cut given only in a name is not applied to a line headed by its entry.
UniProt O15379: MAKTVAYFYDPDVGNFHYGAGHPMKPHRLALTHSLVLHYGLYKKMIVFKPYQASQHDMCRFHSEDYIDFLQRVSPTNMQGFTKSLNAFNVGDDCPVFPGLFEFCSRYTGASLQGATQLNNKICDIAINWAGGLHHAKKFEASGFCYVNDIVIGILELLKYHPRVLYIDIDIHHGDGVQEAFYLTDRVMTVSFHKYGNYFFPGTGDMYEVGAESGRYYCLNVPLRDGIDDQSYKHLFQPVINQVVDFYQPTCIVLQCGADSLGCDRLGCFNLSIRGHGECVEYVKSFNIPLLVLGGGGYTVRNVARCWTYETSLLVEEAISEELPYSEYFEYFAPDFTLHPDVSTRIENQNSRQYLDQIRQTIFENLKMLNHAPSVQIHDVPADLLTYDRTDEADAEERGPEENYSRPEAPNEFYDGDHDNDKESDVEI

Target: Histone deacetylase 3 (Homo sapiens) (UniProt O15379)
Assay: inhibition of human HDAC3 enzymatic activity – biochemical, fluorescence, cherry-picked samples, counter-screen for JMJD2C/GASC1 demethylase inhibitor project, dose response (AID 485318);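 further: enzyme preincubated with compound before substrate and trypsin were added; 0% = neutral control wells and -100% = SAHA positive control wells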
Settings: recombinant HDAC3, fluorogenic peptide/trypsin coupled; at 12 µM (top of the series)

| SMILES | activity change, negative = inhibition |
| --- | --- |
| CCc1ccc(NC(=O)CSc2nnc(CNC(=O)c3c(F)cccc3Cl)o2)cc1 | inactive: 0.0315% |
| N#CC1(NC(=O)Cn2ncc(Cl)c(Cl)c2=O)CCCCC1 | inactive: -0.54% |
| CC(OC(=O)CN1C(=O)COc2ccccc21)C(=O)NCc1ccc(F)cc1 (stereo not drawn) | inactive: 0.76% |
| C[C@H](N)c1nnc(SCC(=O)N(C)C)o1 | inactive: -0.256% |
| O=C(N1CCN(c2ccccc2)CC1)C12CC3CC(CC(C3)C1)C2 | inactive: -0.173% |
| CCN(C[C@H]1N[C@@](C)(C(=O)OC)[C@H]2C(=O)N(Cc3ccccc3)C(=O)[C@@H]12)C(=O)Nc1ccc(F)cc1 | inactive: -0.653% |
| Cc1cccc2cc(C#N)c(SCCN3CCCCC3)nc12 | inactive: -0.21% |
| OC(COc1ccc2ccccc2c1Br)Cn1cnc(-c2ccccc2)c1 (stereo not drawn) | inactive: -0.011% |
| O=C(O)c1ccccc1OCCOc1ccccc1C(=O)O | inactive: 0.223% |
| CCC/C(=N\NC(=O)c1csc(C)c1C)c1cccs1 | inactive: 0.368% |
| COc1ccc(CCNC(=O)COC(=O)c2ccc(Br)o2)cc1 | inactive: 0.207% |
| Cc1cnc(NC(=O)c2ccc(-c3nc4ccccc4s3)o2)s1 | inactive: 0.774% |
| CCCCn1c(N)c(N(CC)C(=O)c2ccco2)c(=O)[nH]c1=O | inactive: 0.105% |
| CCCc1c(NC(=O)Nc2ccc(F)cc2)cnn1-c1ccccc1 | inactive: 0.184% |
| O=C(Nc1ccccc1)Nc1ccc(S(=O)(=O)N2CCCCC2)cc1 | inactive: 0.255% |
| O=[N+]([O-])c1ccccc1/C=C/C=N/n1c(-c2ccc(Cl)cc2)n[nH]c1=S | inactive: 0.766% |
| Cc1ccc(S(=O)(=O)N(C)C[C@@H]2Oc3ccc(NC(=O)Cn4cnnn4)cc3C(=O)N([C@@H](C)CO)C[C@H]2C)cc1 | inactive: 0.0257% |
| CCNc1oc(-c2cccc3ccccc23)nc1C#N | inactive: 0.274% |
| COC(=O)[C@]1(C)N[C@H](CN(C)S(=O)(=O)c2ccc(F)cc2)[C@@H]2C(=O)N(C)C(=O)[C@@H]21 | inactive: -0.842% |
| CCCCC(=O)NC(Nc1nc(C2CC2)cs1)(C(=O)OCC)C(F)(F)F (stereo not drawn) | inactive: 0.125% |
| N#Cc1cc(-c2ccccc2)nnc1Sc1ccccc1 | inactive: -0.00806% |
| C#CC[N+]1(CC#Cc2ccc(C#CC[N+]3(CC#C)CCOCC3)cc2)CCOCC1 | inactive: -0.0944% |

Part of the list above, tab-delimited:
SMILES	activity change, negative = inhibition
C[C@H](N)c1nnc(SCC(=O)N(C)C)o1	inactive: -0.256%
CCCc1c(NC(=O)Nc2ccc(F)cc2)cnn1-c1ccccc1	inactive: 0.184%
O=C(Nc1ccccc1)Nc1ccc(S(=O)(=O)N2CCCCC2)cc1	inactive: 0.255%

Remaining list, next part

| SMILES | activity change, negative = inhibition |
| --- | --- |
| Cc1ccc(-n2c3nc(=O)[nH]c(=O)c-3cc3c(C)nn(-c4ccccc4)c32)c(C)c1 | inactive: -0.0691% |
| CC1=NN(c2ccc(C)cc2C)C(=O)C1C(c1ccccc1)C1C(=O)N(c2ccc(C)cc2C)N=C1C (stereo not drawn) | inactive: -0.318% |
| O=C(NCCCn1ccnc1)c1cc2c(ccc3ccccc32)o1 | inactive: -0.124% |
| CCOC(=O)CNC(=O)CNC(=O)c1ccc(OC)cc1 | inactive: 0.486% |
| Cn1c(/N=C/c2cc(Cl)ccc2O)nc2ccccc21 | inactive: -0.0197% |
| Cc1ccc(/C=N/NC(=O)c2ccc(C(=O)N/N=C/c3ccc(C)s3)o2)s1 | inactive: 0.57% |
| Cc1cc(-c2n[nH]c(=S)o2)c(C)n1-c1ccccc1 | inactive: -0.98% |
| O=C(COC(=O)c1cccs1)c1ccccc1 | inactive: -0.266% |
| Cc1nnc(N2C(=O)c3cccc4c([N+](=O)[O-])ccc(c34)C2=O)s1 | inactive: 0.858% |
| Cc1ccc(-n2nc3c(N4CCC(C(=O)N5CCCCCC5)CC4)nnc(C)c3c2C)cc1 | inactive: 0.0499% |
| CN(C)CCCNC1=CC(=O)OC12CCCCC2 | inactive: -0.144% |
| CCOC(=O)CCC(=O)NCc1ccc2c(c1)cc(C)n2C | inactive: 0.447% |
| CCCSc1nc(-c2ccccc2)cc(C(F)(F)F)c1C#N | inactive: 0.346% |
| O=c1oc2ccccc2c(O)c1C=NCc1ccccn1 | inactive: -0.859% |
| Cn1c(=O)[nH]c(=O)c2c1nc(SCC(=O)O)n2CCc1ccccc1 | inactive: -0.805% |
| Cc1ccc(C(Sc2ccccc2)C(Cn2cncn2)C(=O)c2ccccc2)cc1 (stereo not drawn) | inactive: 0.189% |
| c1ccc2cc(CCO[C@H]3CCCCO3)ncc2c1 | inactive: -0.0175% |
| N#CC1=C(N)N2C(=C(C#N)C13CCCCC3)SC1CCCCC12O (stereo not drawn) | inactive: 0.692% |
| O=C(c1ccc2c(c1)OCO2)N1CCCN(C(=O)c2ccc3c(c2)OCO3)CC1 | inactive: 0.114% |
| N#Cc1ccc(CSc2ncnc3c2cnn3Cc2ccccc2)cc1 | inactive: -0.017% |
| CCOC(=O)[C@H]1[C@H]2COc3ccc(C)cc3[C@@H]2N2C(=O)c3ccc(Cl)cc3NC(=O)[C@@]12C | inactive: 0.735% |
